# From PubChem BioAssay AID2417 (National Center for Advancing Translational Sciences (NCATS), 2010)
# Screen size: about 140,000 compounds; about 4,300 (3.1%) were called active. Inconclusive means that the source gave no clear call. Such entries were picked first, then a sample of the others.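 How the source made its calls: active means readout at or below -70, meaning at least 70% loss of cells showing the perinucleolar compartment, a nuclear body marking cancer cells; inconclusive means readout between -30 and a set limit; inactive means the rest.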
# Test: High Content Assay for Compounds that inhibit the Assembly of the Perinucleolar Compartment;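 further: plate controls were DMSO wells for no effect and camptothecin positive control wells for full effect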
# Conditions: PC3M PTB-GFP, PNC prevalence imaging, 16 h; at 10 µM; hits give low values
# In short: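 Compounds are pinned in duplicate onto adhered PC3M cells stably expressing GFP-tagged PTB and incubated 16 h at 37 C. Cells are then fixed, nuclei stained with Hoechst, and PNC-positive cells counted.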
row,Compound,"activity change (PNC), negative = inhibition"
1,Oc1ccc(C=NCC2COc3ccccc3O2)cc1 (centres undefined),inactive: -1.08%
2,Cc1ccccc1NC(=O)C(=O)NCCc1ccccc1,inconclusive: -31.1%
3,Cc1cc(-c2ccccc2)n(-c2ccc(C(=O)NC(C)C)cc2)n1,inactive: -7.27%
4,Cc1cccc(Cn2cc(/C=C/[N+](=O)[O-])c3ccccc32)c1,inactive: -24.5%
5,C#CCn1c(S(=O)(=O)Cc2ccccc2Cl)nc(-c2ccccc2)c1-c1ccccc1,inactive: -18.9%
6,N#CC1=C(N)NC(SCc2ccc(Br)cc2)=C(C#N)C12CCCCC2,inactive: 35.4%
7,CCC(C)[C@H](NC(=O)NCCCn1ccnc1)C(=O)OC (some centres undefined),inconclusive: -46%
8,COc1ccc(Cl)cc1NC(=O)CSc1nnc(CN2CCOCC2)n1-c1ccc(Cl)cc1,inconclusive: -33.5%
9,CCOC(=O)C1=C(CSc2nc(C)cc(C)c2C#N)OC(N)=C(C#N)C1c1ccccc1 (centres undefined),inactive: 17.3%
10,Cc1cc2nnc(SCc3ccccc3)n2c(N)n1,inactive: 0.475%
11,COCCCNCCCOc1ccc(C(C)(C)c2ccccc2)cc1,active: -107%
12,CC1(C)Cc2cccc(OCC(=O)Nc3nccs3)c2O1,active: -87.8%
13,COc1ccc(-c2nc(SCC(=O)Nc3nccs3)c(-c3ccc(Cl)cc3)[nH]2)cc1,inactive: 10.1%
14,Cc1ccc(NC(=O)N(C2CCCCC2)C(C)c2cccnc2)cc1C (centres undefined),inconclusive: -44.1%
15,CCOc1ccc(CCNC(=O)C2CCCN(S(=O)(=O)c3c(C)n[nH]c3C)C2)cc1OCC (centres undefined),inconclusive: -57.9%
16,CC1(C)C2CC=C(/C=N/NC(=O)c3ccccc3O)C1C2 (centres undefined),inconclusive: -30.3%
17,Cn1nc(CC(=O)Nc2ccc3c(c2)CCC3)c2ccccc2c1=O,inconclusive: -34.5%
18,Cc1ccc(C(C(=O)Nc2ccc3c(c2)OCO3)N(C)C(=O)/C=C\c2ccc3c(c2)OCO3)cc1 (centres undefined),inactive: -20.8%
19,c1ccc2nc(-c3ccc(N4CCOCC4)cc3)ccc2c1,inconclusive: -52.2%
20,O=C(OCC(=O)N1CCN(C(=O)c2ccco2)CC1)c1cc(-c2ccco2)nc2ccccc12,inactive: 34.1%
21,Cc1nc2ccc(S(=O)(=O)NCC(=O)N3CCCC(C)C3)cc2s1 (centres undefined),inactive: 21.8%
22,CCC(=O)n1nc(-c2ccccc2)nc1SCC(=O)Nc1ccc(C)cc1,inactive: 71.8%
23,CC1=NN=C(c2ccccc2)C(c2c[nH]c3ccccc23)N1O (centres undefined),active: -114%

row,Compound,"activity change (PNC), negative = inhibition"
1,COCC(=O)Nc1cc(=O)n(C)c(=O)n1C,active: -83.6%
2,COc1ccc(CN(C(=O)Cc2c[nH]c3ccccc23)C(C(=O)NC2CCCCC2)c2ccc(C)o2)cc1 (centres undefined),inconclusive: -53.5%
3,O=C(ON=C1CCN(S(=O)(=O)c2ccccc2)CC1)c1ccccc1,inconclusive: -38.6%
4,CCOC(=O)c1c(NC(=O)COc2cccc3c2CCN(Cc2ccc(F)cc2)C3=O)sc2c1CCC2,inconclusive: -42%
5,N#Cc1c(NC(=O)C2CC(c3ccccc3Cl)=NO2)sc2c1CCC2 (centres undefined),inactive: 95.3%
6,COc1ccccc1C(OC(=O)c1cccs1)C(=O)NCc1ccco1 (centres undefined),inconclusive: -38.9%
7,O=c1cc(-c2ccccc2)[nH]c2nc3ccccc3n12,inconclusive: -78.6%
8,Cc1n[nH]c(=S)n1/N=C/c1ccc(OCc2ccc(Cl)cc2Cl)cc1,inconclusive: -52.1%
9,O=C(NCC(=O)N(Cc1cccs1)C(C(=O)NC1CCCCC1)c1ccncc1)c1ccco1 (centres undefined),inconclusive: -30.5%
10,Cc1ccc(S(=O)(=O)NCCC(=O)Nc2ccc(C)cc2C(=O)c2ccccc2)cc1,inconclusive: -41.4%
11,O=c1[nH]ncn1-c1ccccc1C(F)(F)F,inconclusive: -31.9%
12,COc1ccc(C(=O)NC(=S)NNC(=O)c2c(-c3ccccc3)noc2C)cc1,inconclusive: -78.2%
13,O=C(c1ccc(-c2cc3ccccc3oc2=O)cc1)N1CCN(c2ccc(Cl)cc2[N+](=O)[O-])CC1,inconclusive: -36%
14,Nc1nnc(SCC(=O)c2ccccc2)s1,inactive: -0.669%
15,Cc1ccc(OCc2nnc(SCC(=O)c3cccs3)n2-c2ccccc2)cc1C,inconclusive: -45.1%
16,Cc1ccc2c(CC(=O)OCc3nc(N)nc(Nc4ccccc4C)n3)coc2c1,inconclusive: -48%
17,CN1CCN(C(=O)c2cc3c(n(-c4ccccc4)c2=O)CC(C)(C)CC3=O)CC1,inconclusive: -31.3%
18,Nc1c(C(O)(C(F)(F)F)C(F)(F)F)cc(C(O)(C(F)(F)F)C(F)(F)F)c2ccccc12,inactive: -18.6%
19,Brc1ccccc1-c1nnc2sc(Cc3ccccc3)nn12,inactive: 23.8%
20,CC(C)CC(=O)Nc1cccc(-c2nc3ccccc3o2)c1,inconclusive: -49.6%
21,CCOC(=O)c1c(NC(=O)C(C)Sc2c[nH]c3ccccc23)sc2c1CCC2 (centres undefined),inconclusive: -38.1%
22,Cc1cc(C)n2c(Br)c(CSc3nc4ccccc4s3)nc2n1,inactive: 12.1%
23,O=C(O)CCCCCN1C(=O)C2CCCCC2C1=O (centres undefined),inconclusive: -61.7%

# No new results follow: entries from further up.
row,Compound,"activity change (PNC), negative = inhibition"
5,C#CCn1c(S(=O)(=O)Cc2ccccc2Cl)nc(-c2ccccc2)c1-c1ccccc1,inactive: -18.9%
6,N#CC1=C(N)NC(SCc2ccc(Br)cc2)=C(C#N)C12CCCCC2,inactive: 35.4%
7,CCC(C)[C@H](NC(=O)NCCCn1ccnc1)C(=O)OC (some centres undefined),inconclusive: -46%
8,COc1ccc(Cl)cc1NC(=O)CSc1nnc(CN2CCOCC2)n1-c1ccc(Cl)cc1,inconclusive: -33.5%

# More entries:

row,Compound,"activity change (PNC), negative = inhibition"
1,O=C(c1cnc(-c2ccc(Cl)cc2)s1)c1ccc(Cl)cc1Cl,inactive: 62.5%
2,COc1ccc(C2C=C(c3ccc(C)c(C)c3)Nc3ncnn32)c(OC)c1OC (centres undefined),inconclusive: -47.2%
3,CCC(SC1=Nc2ccccc2C2=NC(CC(C)C)C(=O)N12)C(=O)Nc1ccc2c(c1)OCO2 (centres undefined),inconclusive: -68.2%
4,CCCCOc1ccc(CN2CCC(O)CC2)cc1,active: -100%
5,COc1ccc(C(c2nnnn2CCc2ccccc2)N2CCN(C)CC2)cc1OC (centres undefined),inconclusive: -58.8%
6,O=[N+]([O-])c1ccc2nc(SCc3cn4cc(Cl)ccc4n3)[nH]c2c1,inconclusive: -53.6%
7,O=C(Nc1cccc([N+](=O)[O-])c1)c1ccc(CSc2ccccc2)cc1,inconclusive: -31.5%
8,COc1ccc2[nH]c(=O)c(NC(N)=S)nc2c1,inactive: -20.3%
9,Cc1cc(C)c2nc(/N=C(\N)NC(=O)Nc3ccccc3)nc(C)c2c1,inconclusive: -42.2%
10,CC1CCN(c2cc(C#N)c(C#N)cc2[N+](=O)[O-])CC1,inactive: 23.8%
11,Cc1ccc(C(O)(C(=O)NNS(=O)(=O)c2ccc(C)cc2)c2ccc(C)cc2)cc1,inactive: -7.16%
12,COc1ccc(NC(=O)CC2C(=O)N(c3ccc(Cl)cc3)C(=S)N2CCc2ccncc2)cc1 (centres undefined),inactive: 22.7%
13,C=CCc1cccc(/C=N/c2ncn[nH]2)c1O,inconclusive: -44.3%
14,O=C(Nc1nc2c(s1)CCCC2)c1cc(-c2ccccc2)nc2ccccc12,inconclusive: -51.7%
15,COc1ccc(C(=O)NCCn2cc(SCC(=O)NCc3ccco3)c3ccccc32)cc1,inactive: -1.61%
16,O=C(CN1C(=O)C2C3CCC(C3)C2C1=O)OCC(=O)c1cccc([N+](=O)[O-])c1 (centres undefined),inactive: 67.8%
17,CCOc1ccc(NC(=O)CN2CCN(CC(=O)Nc3ccc4c(c3)OCO4)CC2)cc1,inconclusive: -64.6%
18,Nc1nnnn1/N=C/c1cccs1,inconclusive: -34.4%
19,COCCCN1C(=O)c2[nH]nc(-c3cc(C)cc(C)c3O)c2C1c1ccc(O)c(OC)c1 (centres undefined),inactive: 15.3%
20,CCOP(=O)(OCC)C(Nc1cccc(C)c1)c1ccc(F)cc1 (centres undefined),inconclusive: -33.4%
21,O=C(CCCc1ccccc1)c1ccc2c(c1)OCCO2,inconclusive: -42.5%
22,O=C(NC1CCCCCC1)C(=O)NC1CCCC1,inconclusive: -43.2%
23,CCC(=O)NS(=O)(=O)c1cccnc1Nc1ccc(Cl)cc1,inconclusive: -69.9%

row,Compound,"activity change (PNC), negative = inhibition"
1,Cc1occc1-c1nnc(SCC(=O)Nc2ccccc2)n1Cc1ccccc1,inconclusive: -69.2%
2,O=C(c1ccc(COc2c(F)c(F)c(F)c(F)c2F)o1)N1CCOCC1,inconclusive: -55.1%
3,COc1ccc(OCCCC(=O)NCc2ccco2)cc1,inactive: 24.2%
4,N#Cc1nc(-c2ccco2)oc1N1CCN(c2cccc(Cl)c2)CC1,active: -82.1%
5,COC(=O)[C@@]1(Cc2ccc(F)cc2)[C@H]2c3cc(C(=O)N4CCCC4)n(CCc4ccccn4)c3C[C@H]2CN1C(=O)c1ccccc1,active: -96.9%
6,O=C(c1cccnc1)N(Cc1ccccc1)c1ccccc1,inactive: -11.7%
7,CCCCn1c(NC(C)=O)c(C#N)c2nc3ccccc3nc21,inconclusive: -39.8%
8,O=C(COC(=O)c1cccnc1SCC(=O)NCc1ccccc1)NCc1ccccc1,inconclusive: -36.8%
9,CC(C)C(=O)Nc1nc2c(ncn2C2CC(O)C(CO)O2)c(=O)[nH]1 (centres undefined),inconclusive: -36.6%
10,Cc1ccccc1C(=O)Oc1ccccc1C(=O)N1CCOCC1,inactive: 18.4%
11,Cc1ccc(N2C(=N)SCC2=O)cc1Cl,inconclusive: -55.3%
12,COC(=O)CN(c1nc(C)cc(OC)n1)S(=O)(=O)c1ccccc1,inconclusive: -78.3%
13,CCC(=O)Nc1ccc2ccccc2c1,inconclusive: -35.6%
14,COc1ccccc1CN(Cc1nc2ccccc2c(=O)[nH]1)C(=O)Nc1cccc(C)c1,inactive: 16.8%
15,CCOC(=O)Cn1cc(C=O)c2ccccc21,inconclusive: -35.7%
16,CC1=CCC2C(=O)N(c3ccccc3OC(=O)c3ccccc3F)C(=O)C2C1 (centres undefined),inactive: 6.96%
17,CCn1c(SCC(=O)Nc2cc(F)ccc2C)nnc1-c1ccccc1O,inconclusive: -37.9%
18,Cc1cc(C)c(Cc2c(C)nc3c(C(=O)NCc4ccco4)cnn3c2C)c(C)c1,inconclusive: -44%
19,O=C(NCc1ccco1)[C@@H]1CCCN1C(=O)c1cccs1,inconclusive: -54.6%
20,COc1ccc(C(=O)Nc2cccc(C(C)=O)c2)cc1S(=O)(=O)N1CCOCC1,inconclusive: -46%
